Test results taken from article PMC8989918.
These are yes or no findings as the source states them, for the method shown. In cells and extracts the contact can be indirect. Some results given as binding are weak or reduced against the parent protein; the word gives no strength.

Chains of the proteins cited; added tags and fusions are not shown. Lines headed by an entry give the natural chain unless they say otherwise; changes in a name come on top. A line that says so, or that is headed by a name, gives the form on record, which may keep a tag or linker.
Csk K43D, epitope-tagged (Csk^Myc and Csk^HA, both K43D) (P41241, form named): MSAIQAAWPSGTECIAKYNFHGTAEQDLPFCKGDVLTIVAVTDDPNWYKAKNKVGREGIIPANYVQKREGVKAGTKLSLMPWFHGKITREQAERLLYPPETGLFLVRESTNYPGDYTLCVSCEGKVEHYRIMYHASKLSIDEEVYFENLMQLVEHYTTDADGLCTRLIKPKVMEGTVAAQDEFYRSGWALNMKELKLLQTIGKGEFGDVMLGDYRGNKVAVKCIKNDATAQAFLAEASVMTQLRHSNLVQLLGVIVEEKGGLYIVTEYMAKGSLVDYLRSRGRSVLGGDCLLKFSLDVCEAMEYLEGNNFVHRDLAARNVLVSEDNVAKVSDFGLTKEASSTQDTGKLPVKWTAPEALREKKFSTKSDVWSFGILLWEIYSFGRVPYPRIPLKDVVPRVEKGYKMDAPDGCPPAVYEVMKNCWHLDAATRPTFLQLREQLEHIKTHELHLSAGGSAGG

Molecular target: Csk K43D, epitope-tagged (Csk^Myc and Csk^HA, both K43D) (mouse) (UniProt P41241)
Test: co-IP; anti-Myc (9B11) immunoprecipitation on Protein-A sepharose, 2 h at 4 °C, from lysates of Jurkat cells co-transfected with Csk^Myc and Csk^HA; lysis buffer 1% lauryl maltoside, 150 mM NaCl, 0.4 mM EDTA, 10 mM Tris pH 7.5; blots for HA, Myc and endogenous PTPN22; densitometry corrected for Csk^Myc pulldown, relative to WT

With “Csk K43D, epitope-tagged (Csk^Myc and Csk^HA, both K43D) (from UniProt P41241 1-450)” the binding was “binds”.
